Laboratory results: paper PMC6720540
No constants are given. Whether binding was seen depends on the method and setting. In cells and extracts the contact can be indirect. Some results given as binding are weak or reduced against the parent protein; the word gives no strength.

By UniProt entry, the sequences of proteins in these tests, tags left out.
UniProt P01106: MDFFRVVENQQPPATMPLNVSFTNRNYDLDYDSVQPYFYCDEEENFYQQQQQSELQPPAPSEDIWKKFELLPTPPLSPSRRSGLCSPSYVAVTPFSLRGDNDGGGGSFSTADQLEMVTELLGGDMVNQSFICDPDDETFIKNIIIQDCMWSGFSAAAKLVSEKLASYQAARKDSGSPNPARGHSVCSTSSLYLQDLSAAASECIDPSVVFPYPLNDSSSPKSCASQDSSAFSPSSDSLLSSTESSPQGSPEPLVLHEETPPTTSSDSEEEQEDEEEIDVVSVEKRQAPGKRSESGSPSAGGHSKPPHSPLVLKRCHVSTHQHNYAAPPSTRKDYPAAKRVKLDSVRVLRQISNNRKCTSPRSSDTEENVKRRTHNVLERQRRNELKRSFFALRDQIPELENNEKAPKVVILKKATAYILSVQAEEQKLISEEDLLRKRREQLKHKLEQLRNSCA
UniProt P46527: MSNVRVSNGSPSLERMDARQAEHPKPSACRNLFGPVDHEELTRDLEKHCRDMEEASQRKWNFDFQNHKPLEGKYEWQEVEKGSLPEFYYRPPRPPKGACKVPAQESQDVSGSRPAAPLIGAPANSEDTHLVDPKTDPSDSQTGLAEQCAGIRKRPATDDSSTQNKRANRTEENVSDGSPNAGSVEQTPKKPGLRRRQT

Target: c-Myc (human (endogenous in Huh7)) (UniProt P01106)
Experiment: co-IP; endogenous proteins of Huh7 cells, with or without Pyrogallol; NP-40 lysis buffer, 300 ug of proteins incubated overnight with c-Myc antibody at 4 C, protein A/G Plus-beads, immunoblotting with the indicated antibodies

- binding: binds
Substance: p27 (Cyclin-dependent kinase inhibitor 1B) (from UniProt P46527 1-198)
